Results are given in words; binding and its absence hold for the method and conditions named. Binding seen in cells or lysates may run through a third protein. A yes stands for co-enrichment or nearness to the bait. Other partners may have been found. Where a sequence is shown, tags or fusion partners need not be part of it.
Molecular target: T1, HA‐strep tagged B7‐H3 (human) (UniProt Q5ZPR3)
T1 sequence: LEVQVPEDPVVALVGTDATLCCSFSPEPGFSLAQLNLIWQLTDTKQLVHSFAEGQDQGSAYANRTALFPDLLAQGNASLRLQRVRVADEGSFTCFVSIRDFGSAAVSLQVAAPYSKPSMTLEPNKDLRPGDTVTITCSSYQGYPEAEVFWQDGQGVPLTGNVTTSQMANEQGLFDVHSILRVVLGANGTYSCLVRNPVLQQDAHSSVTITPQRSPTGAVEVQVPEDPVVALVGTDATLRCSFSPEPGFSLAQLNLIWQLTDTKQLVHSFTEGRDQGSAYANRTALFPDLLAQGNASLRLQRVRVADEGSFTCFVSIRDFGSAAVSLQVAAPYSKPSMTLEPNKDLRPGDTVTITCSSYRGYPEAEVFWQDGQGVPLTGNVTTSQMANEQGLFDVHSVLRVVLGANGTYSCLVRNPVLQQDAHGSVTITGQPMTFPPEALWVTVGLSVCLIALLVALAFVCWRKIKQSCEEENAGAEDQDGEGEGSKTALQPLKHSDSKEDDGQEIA
Assay: affinity purification with mass spectrometry; TAP‐tag system overexpressing HA‐strep tagged B7‐H3 in cancer cells, followed by mass spectrometry

Chains of the proteins cited; added tags and fusions are not shown. Residues count along the entry.
UniProt P08581, residues 25-1390: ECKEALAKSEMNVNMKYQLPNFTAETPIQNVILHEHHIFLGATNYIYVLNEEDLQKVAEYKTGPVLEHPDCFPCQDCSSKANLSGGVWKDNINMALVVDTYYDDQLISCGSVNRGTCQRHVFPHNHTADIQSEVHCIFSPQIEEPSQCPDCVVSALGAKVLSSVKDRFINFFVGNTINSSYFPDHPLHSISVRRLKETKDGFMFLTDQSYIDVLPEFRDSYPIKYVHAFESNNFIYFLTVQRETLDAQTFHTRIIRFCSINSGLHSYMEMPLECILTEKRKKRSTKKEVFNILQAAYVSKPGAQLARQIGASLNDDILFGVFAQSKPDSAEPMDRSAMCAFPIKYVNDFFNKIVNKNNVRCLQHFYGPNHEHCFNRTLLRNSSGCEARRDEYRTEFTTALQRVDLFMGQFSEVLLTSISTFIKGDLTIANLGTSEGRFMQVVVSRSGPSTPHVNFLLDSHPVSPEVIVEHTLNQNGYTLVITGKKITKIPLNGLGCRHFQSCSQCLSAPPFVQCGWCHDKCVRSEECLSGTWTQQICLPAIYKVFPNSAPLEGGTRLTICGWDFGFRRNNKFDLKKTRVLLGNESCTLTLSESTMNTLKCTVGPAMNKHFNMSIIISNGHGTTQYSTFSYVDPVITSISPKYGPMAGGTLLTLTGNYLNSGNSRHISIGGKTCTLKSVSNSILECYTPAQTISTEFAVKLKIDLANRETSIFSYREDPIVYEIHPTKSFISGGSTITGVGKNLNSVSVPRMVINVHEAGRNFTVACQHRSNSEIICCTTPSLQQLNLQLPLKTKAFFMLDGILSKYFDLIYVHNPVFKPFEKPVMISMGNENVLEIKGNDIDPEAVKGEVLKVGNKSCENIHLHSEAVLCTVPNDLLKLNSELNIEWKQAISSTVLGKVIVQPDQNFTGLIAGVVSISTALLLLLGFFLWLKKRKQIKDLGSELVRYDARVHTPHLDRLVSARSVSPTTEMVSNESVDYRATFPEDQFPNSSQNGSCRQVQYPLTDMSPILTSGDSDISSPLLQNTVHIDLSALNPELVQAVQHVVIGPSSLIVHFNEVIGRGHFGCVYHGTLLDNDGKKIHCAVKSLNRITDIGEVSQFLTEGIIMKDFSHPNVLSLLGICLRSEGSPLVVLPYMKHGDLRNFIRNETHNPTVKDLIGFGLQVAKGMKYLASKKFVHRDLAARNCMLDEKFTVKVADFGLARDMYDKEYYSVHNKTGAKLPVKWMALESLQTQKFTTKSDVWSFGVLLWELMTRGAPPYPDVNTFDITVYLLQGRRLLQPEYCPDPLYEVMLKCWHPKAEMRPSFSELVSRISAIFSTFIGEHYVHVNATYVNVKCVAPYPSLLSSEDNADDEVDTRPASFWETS

binding: binds
Substance: c‐Met (endogenous, in tumor cell lines) (from UniProt P08581 25-1390) (receptor)

From PMC12371199, “Identification of c‐Met on Tumor Cells as a Novel Receptor for B7‐H3 Entails Implications for Cancer Cell Stemness and Targeted Therapy” (MedComm, 2025)
